Laboratory results published in patent US11056705B2, “Organic anolyte materials for flow batteries” (THE REGENTS OF THE UNIVERSITY OF MICHIGAN, priority 2015, dated 2021).
Some of these results come from one statement about several compounds together.

Test: Cyclic voltammetry (CV) of anolyte candidates in a three-electrode cell
Format: physicochemical
Conditions: MeCN with NBu4BF4 (TBABF4) supporting electrolyte; versus Ag/Ag+
Description: The electrochemistry of a series of heteroarenes was evaluated by cyclic voltammetry (CV). Electrochemical analysis was performed in the absence of oxygen and moisture. The experiments were conducted in a three-electrode cell comprised of a glassy carbon working electrode, a platinum counter electrode, and a Ag/Ag^+ reference electrode. The CV of each anolyte candidate was initially conducted in acetonitrile (MeCN) with tetrabutylammonium tetrafluoroborate (TBABF4) as the supporting electrolyte.
The reversibility of each redox couple in the CV was estimated by calculating the ratio of the diffusion-limited peak-heights of the cathodic (ipc) and anodic (ipa) currents (FIG. 2). The current peak heights were determined from the second CV cycle, and are all reported following deconvolution of the current-potential plot. […] In addition, […] conducted at slow scan rates allows for an extended lifetime of the reduced species (FIG. 2, 10 mV/s scan). With longer lifetimes, the concentration of charged anolytes that are susceptible to irreversible chemical or electrochemical reactions will decrease, and lower current responses upon re-oxidation will be observed. As a result, redox couples measured at slow scan rates generally occur with current peak-height ratios that deviate from unity to a greater extent than couples measured at faster scan rates. […]

## COC(=O)c1ccncc1 [Compound 3a, methyl isonicotinate]
  reduction potential: lower than −2 V

## COC(=O)c1ccccn1 [Compound 1a, Methyl picolinate]
  reduction potential: lower than −2 V
